Assay results taken from the supplement of paper PMC10849652.
The list shows a part of the results.

Sequences of proteins named here, by UniProt entry; tags and fusion partners are left off. A change or cut given only in a name is not applied to a line headed by its entry.
UniProt Q9NS18: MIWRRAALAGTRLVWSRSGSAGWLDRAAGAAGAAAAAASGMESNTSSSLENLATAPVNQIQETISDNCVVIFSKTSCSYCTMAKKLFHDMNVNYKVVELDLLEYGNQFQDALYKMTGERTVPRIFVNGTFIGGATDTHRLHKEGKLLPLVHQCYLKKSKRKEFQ
UniProt Q8WWB7: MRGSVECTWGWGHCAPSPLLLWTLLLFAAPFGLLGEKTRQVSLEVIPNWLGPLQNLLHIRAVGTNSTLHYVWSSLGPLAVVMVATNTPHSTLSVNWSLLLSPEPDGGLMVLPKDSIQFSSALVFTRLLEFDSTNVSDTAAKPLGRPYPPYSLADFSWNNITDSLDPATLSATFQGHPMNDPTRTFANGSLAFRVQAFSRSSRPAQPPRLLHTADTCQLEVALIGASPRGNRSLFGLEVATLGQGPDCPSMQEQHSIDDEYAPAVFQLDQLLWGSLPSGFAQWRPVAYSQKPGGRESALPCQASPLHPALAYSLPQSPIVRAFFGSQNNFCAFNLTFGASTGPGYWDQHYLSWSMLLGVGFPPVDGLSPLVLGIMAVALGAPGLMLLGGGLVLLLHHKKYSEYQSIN
UniProt Q9UJJ9: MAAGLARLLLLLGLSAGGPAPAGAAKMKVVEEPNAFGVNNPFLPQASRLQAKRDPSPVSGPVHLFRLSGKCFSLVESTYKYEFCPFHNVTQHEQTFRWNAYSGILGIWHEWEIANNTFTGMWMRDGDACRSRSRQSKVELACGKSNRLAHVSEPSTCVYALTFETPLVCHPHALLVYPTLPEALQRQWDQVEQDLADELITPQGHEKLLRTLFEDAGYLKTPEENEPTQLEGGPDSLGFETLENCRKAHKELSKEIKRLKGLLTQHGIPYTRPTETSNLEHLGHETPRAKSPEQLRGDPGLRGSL
UniProt Q9Y4H4: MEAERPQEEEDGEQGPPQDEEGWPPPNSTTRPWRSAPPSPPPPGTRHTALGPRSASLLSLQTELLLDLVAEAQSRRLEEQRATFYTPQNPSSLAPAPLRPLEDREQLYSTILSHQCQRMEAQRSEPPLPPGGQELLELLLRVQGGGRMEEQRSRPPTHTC
UniProt Q92805: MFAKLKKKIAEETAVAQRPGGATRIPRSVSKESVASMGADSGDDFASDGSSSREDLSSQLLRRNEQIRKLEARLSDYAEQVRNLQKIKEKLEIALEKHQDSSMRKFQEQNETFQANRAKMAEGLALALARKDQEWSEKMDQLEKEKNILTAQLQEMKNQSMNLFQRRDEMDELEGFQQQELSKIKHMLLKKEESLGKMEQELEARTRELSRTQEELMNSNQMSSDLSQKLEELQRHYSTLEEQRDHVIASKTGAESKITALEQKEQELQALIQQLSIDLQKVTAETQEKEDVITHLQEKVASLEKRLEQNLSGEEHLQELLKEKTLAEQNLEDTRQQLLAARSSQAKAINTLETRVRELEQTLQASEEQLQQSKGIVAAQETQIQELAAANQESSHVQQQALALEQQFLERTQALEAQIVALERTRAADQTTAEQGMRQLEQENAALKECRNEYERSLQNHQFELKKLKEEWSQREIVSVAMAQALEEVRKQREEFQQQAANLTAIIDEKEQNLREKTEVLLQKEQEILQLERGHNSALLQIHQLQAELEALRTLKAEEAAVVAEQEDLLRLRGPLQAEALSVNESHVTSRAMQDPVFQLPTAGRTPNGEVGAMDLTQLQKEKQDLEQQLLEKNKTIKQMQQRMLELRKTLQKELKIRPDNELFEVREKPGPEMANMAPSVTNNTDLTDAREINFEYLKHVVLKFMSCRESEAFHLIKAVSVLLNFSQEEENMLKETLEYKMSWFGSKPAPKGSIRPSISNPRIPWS
UniProt Q9NPB8: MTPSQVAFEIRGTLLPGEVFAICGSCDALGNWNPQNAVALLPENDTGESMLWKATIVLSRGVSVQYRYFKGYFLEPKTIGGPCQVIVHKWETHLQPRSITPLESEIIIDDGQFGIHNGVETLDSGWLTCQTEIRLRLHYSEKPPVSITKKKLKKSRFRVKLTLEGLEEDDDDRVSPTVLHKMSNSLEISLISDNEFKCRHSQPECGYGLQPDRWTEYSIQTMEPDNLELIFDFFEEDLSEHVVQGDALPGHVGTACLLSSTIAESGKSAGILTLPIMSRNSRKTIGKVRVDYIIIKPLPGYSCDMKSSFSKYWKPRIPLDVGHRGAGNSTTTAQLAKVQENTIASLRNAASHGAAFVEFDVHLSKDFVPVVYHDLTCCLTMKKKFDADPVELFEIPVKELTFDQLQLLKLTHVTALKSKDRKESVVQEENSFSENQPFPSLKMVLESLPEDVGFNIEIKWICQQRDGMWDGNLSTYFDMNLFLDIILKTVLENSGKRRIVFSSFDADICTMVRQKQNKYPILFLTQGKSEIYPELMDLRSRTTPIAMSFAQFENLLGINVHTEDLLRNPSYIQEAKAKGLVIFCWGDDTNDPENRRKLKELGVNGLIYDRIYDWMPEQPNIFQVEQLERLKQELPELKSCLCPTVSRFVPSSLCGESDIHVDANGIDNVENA

Experiments:
Experiment in all cases: log2 fold change, soluble protein after heating vs DMSO (PISA); higher = thermal stabilisation; K562 cells, 10 uM, 30 min; active = over 0.2 and 3.5 SD of the protein, either way, in both replicates (recomputed)
[1] = compound: C1=CC=C(C=C1)[C@H](COC2=CC3=C(C=C2)NC(=O)N3)NC(=O)C4=CC=CN(C4=O)CC5=CC(=C(C=C5)F)F
Outline: (§1)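 Soluble protein was defined as the supernatant after 21,000xg for 90 min. It came from K562 cells at 2×10^6 cells/mL given 10 μM compound for 30 min, heated in aliquots for 3 min across 48°C-58°C, pooled, and extracted in PBS with 0.5% NP-40 at 4°C, and was quantified by TMTpro 16plex LC-MS/MS with equalised channel sums. Thermal stability against control samples, from duplicates, is reported as log2 fold change.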

[2] = compound: CC1=C(SC2=C1C(=N[C@H](C3=NN=C(N32)C)CC(=O)N)C4=CC=C(C=C4)Cl)C
Outline: as §1

[3] = compound: CC1=C2C(=CC=C1)N=C(N(C2=O)C3=CC=CC=C3C)CN4C=NC5=C(N=CN=C54)N
Outline: as §1

[4] = compound: Cc1sc2c(c1C)C(c1ccc(Cl)cc1)=N[C@@H](CC(=O)OC(C)(C)C)c1nnc(C)n1-2
Outline: as §1

[5] = compound: c1ccc([C@@H]2C[C@H]2NC2CCNCC2)cc1
Outline: as §1

Measured: log2 fold change

GLRX2 isoform 2 (UniProt Q9NS18)
inactive: [1] -0.07 | [2] -0.101 | [3] -0.053 | [4] 0.005 | [5] 0.004

GLMP (UniProt Q8WWB7)
inactive: [2] -0.043 | [3] 0.008 | [4] -0.002 | [5] -0.112

GPS1 (UniProt A8K070)
inactive: [1] -0.046 | [2] -0.144 | [5] -0.039

GNPTG (UniProt Q9UJJ9)
inactive: [1] 0.071 | [2] -0.055 | [4] -0.036 | [5] -0.068

GNL2 (UniProt Q13823)
inactive: [1] -0.081 | [4] 0.05

GPSM3 (UniProt Q9Y4H4)
inactive: [2] 0.198 | [3] -0.095 | [5] -0.019

GOLGA1 (UniProt Q92805)
inactive: [3] -0.239

GPCPD1 (UniProt Q9NPB8)
inactive: [2] 0.042 | [5] 0.042
